Values joined by “and” are separate entries in the source; they are usually repeats but may differ in a detail not shown here. Equal entries are not always repeated. The source gives many values for each of these; only a part stands here.
Target: T1, SBC2 (Homo sapiens, UniProt O14508)
T1 construct: SOCS2 (amino acids 32–198); His6 (N, cleaved yes); made in house; host or cells: E. coli BL21(DE3)
Assay: Covalent fluorescence polarization (FP) probe displacement assay
Type: binding
Source text: With the specific covalent modification of Cys111 established, we decided to fully characterize MN551 as a covalent SOCS2 inhibitor. […] (Fig. 2g, h, Supplementary Fig. 9). Due to the covalent nature of the competing inhibitor, a time-dependent reduction in the fraction of protein-bound probe is observed. […] This value illustrates reasonable specificity for a covalent inhibitor, with nonetheless scope for future optimization. In addition to characterizing the kinetic covalency parameters, we have also assessed the stability of the MN551 by monitoring its reactivity (half-life >70 min) with reduced glutathione (GSH) (Supplementary Fig. 10)[35].
To monitor the SBC2-ligand binding kinetics we designed a fluorescein-labeled small-molecule probe - compound 26. The fluorescence polarization (anisotropy) of a threefold serial dilution of 50 µM SBC2 in 10 nM of the probe in 100 mM HEPES pH 7.5, 50 mM NaCl, 0.5 mM TCEP, 2% DMSO was measured to determine the KL (Supplementary Fig. 9A) (BMG Labtech PHERAstar – firmware v1.33). Protein titration and the curves were fitted using GraphPad Prism 9, using one-site fitting models to determine the probe binding constant, KL. Samples were run in triplicate in 384 well plates, using a total volume per well of 16 μL. The bound fraction of the probe is measure using the equation:1 Fb=Af−A/Af−Ab Where,
A time-dependent reduction in probe anisotropy were measured for a 2-fold serial dilution of […] compound MN551 in 10 nM probe +300 μM SBC2. To determine the initial reversible binding affinity, the initial bound fraction of the probe at time = 0, Fbo (the y-intercept in Fb v/s Time plot, Supplementary Fig. 9B) was plotted against MN551 concentration, and the obtained IC50 is then converted to Ki (Supplementary Fig. 9C)[17]. The slope from Fb versus time graph when divided by Fbo gives rate of covalency, kobs. A plot of kobs v/s MN551 concentration using Michaelis–Menten model of GraphPad Prism 9, provides the parameters kinact (maximum potential rate of inactivation) and KI (concentration of MN551 at which kobs = kinact/2) (Supplementary Fig. 9D, E).
The observed first-order rate constant, kobs is related to KI and kinact by the equation:2 kobs=kinactI/KI+I
At [I]«[KI] the above equation is converted to3 […]
The slope from the plot of kobs against concentration of MN551 gives us the covalent efficiency parameter kinact/KI (Supp Fig. 9F)[30],[33].

By UniProt entry, the sequences of proteins in these tests, tags left out. Residues count along the entry.
UniProt O14508, 32-198: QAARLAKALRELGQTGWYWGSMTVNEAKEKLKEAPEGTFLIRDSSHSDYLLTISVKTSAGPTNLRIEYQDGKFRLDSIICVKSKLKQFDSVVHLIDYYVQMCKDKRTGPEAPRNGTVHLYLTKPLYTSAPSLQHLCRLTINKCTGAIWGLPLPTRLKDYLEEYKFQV

[1] = MN551 260.308 nM; Cycle 16 (75 min); n=1
[2] = MN551 364.432 nM, Cycle 8 (35 min)
[3] = MN551 364.432 nM, Cycle 9 (40 min)
[4] = MN551 364.432 nM, Cycle 10 (45 min)
[5] = MN551 364.432 nM, Cycle 11 (50 min)
[6] = MN551 364.432 nM, Cycle 16 (75 min), n=1
[7] = MN551 364.432 nM, Cycle 17 (80 min), n=1
[8] = MN551 364.432 nM, Cycle 18 (85 min), n=1
[9] = MN551 364.432 nM; Cycle 7 (30 min)
[10] = MN551 364.432 nM; Cycle 8 (35 min)
[11] = MN551 364.432 nM; Cycle 9 (40 min)
[12] = MN551 364.432 nM; Cycle 10 (45 min)
[13] = MN551 364.432 nM; Cycle 11 (50 min)
[14] = MN551 364.432 nM; Cycle 12 (55 min); n=1
[15] = MN551 364.432 nM; Cycle 13 (60 min); n=1
[16] = MN551 364.432 nM; Cycle 14 (65 min); n=1
[17] = MN551 364.432 nM; Cycle 15 (70 min); n=1
[18] = MN551 364.432 nM; Cycle 16 (75 min); n=1
[19] = MN551 390.625 nM, Cycle 8 (35 min)
[20] = MN551 390.625 nM, Cycle 9 (40 min)
[21] = MN551 390.625 nM, Cycle 10 (45 min)
[22] = MN551 390.625 nM; Cycle 6 (25 min)
[23] = MN551 390.625 nM; Cycle 7 (30 min)
[24] = MN551 390.625 nM; Cycle 8 (35 min)
[25] = MN551 390.625 nM; Cycle 9 (40 min)

O=C(CCl)Nc1cccc(CNC(=O)[C@H](Cc2ccc(OP(=O)(O)O)cc2)NC(=O)Cc2ccc(F)cc2)c1 [MN551]
Anisotropy [1]: 263.7 and 246.3 and 246.4 | Anisotropy based on Raw Data (485) [1]: 259 and 258.7 and 254.8 | Anisotropy data 485,520,520 (MN551 260.308 nM; Cycle 20 (95 min); n=1): 254 and 251.2 and 250.6 | Fb (MN551 364.432 nM, Cycle 7 (30 min)): 0.8196 and 0.745 and 0.7734 | Anisotropy based on Raw Data (485) [2]: 263.9 and 262.1 and 262.5 | Fb [2]: 0.7783 and 0.7279 and 0.7451 | Anisotropy based on Raw Data (485) [3]: 261.8 and 260.7 | Fb [3]: 0.7904 and 0.7381 and 0.7122 | Anisotropy based on Raw Data (485) [4]: 260.2 and 258.5 and 259.8 | Fb [4]: 0.7966 and 0.7395 and 0.7573 | Anisotropy based on Raw Data (485) [5]: 259.3 and 257.9 and 257.7 | Fb [5]: 0.7917 and 0.733 and 0.7348 | Anisotropy (MN551 364.432 nM, Cycle 13 (60 min), n=1): 257.7 and 255.4 and 251.9 | Anisotropy (MN551 364.432 nM, Cycle 14 (65 min), n=1): 254.8 and 253.5 and 249.2 | Anisotropy (MN551 364.432 nM, Cycle 15 (70 min), n=1): 253.3 and 253.8 and 250.7 | Anisotropy [6]: 253.2 and 253.4 and 248.5 | Normalised anisotropy (0 nM MN551 = 1, free probe = 0) [6]: 0.7894 and 0.8114 and 0.761 | Anisotropy [7]: 252.9 and 247.9 and 248.8 | Anisotropy based on Raw Data (485) [7]: 254.5 and 251.7 and 253.6 | Normalised anisotropy (0 nM MN551 = 1, free probe = 0) [7]: 0.8087 and 0.7507 and 0.7881 | Anisotropy [8]: 250.5 and 248.8 and 248.1 | Normalised anisotropy (0 nM MN551 = 1, free probe = 0) [8]: 0.7948 and 0.7759 and 0.805 | Fb, fraction bound (MN551 364.432 nM; Cycle 4 (15 min)): 0.8802 and 0.8605 and 0.8798 | Fb, fraction bound (MN551 364.432 nM; Cycle 5 (20 min)): 0.8514 and 0.8585 and 0.8503 | Fb, fraction bound (MN551 364.432 nM; Cycle 6 (25 min)): 0.8581 and 0.8628 and 0.8397 | Anisotropy data 485,520,520 [9]: 263.4 and 251 and 253.3 | Fb [9]: 0.8829 and 0.862 and 0.9413 | Fb, fraction bound [9]: 0.8346 and 0.839 and 0.8486 | Anisotropy [10]: 262.8 and 262.5 and 259.2 | Anisotropy data 485,520,520 [10]: 259.5 and 248.8 and 251.3 | Fb [10]: 0.8565 and 0.8782 and 0.9536 and 0.8667 and 0.8418 and 0.8403 | Anisotropy [11]: 261 and 261.7 and 259.8 | Anisotropy data 485,520,520 [11]: 260.7 and 248.6 and 247.4 | Fb [11]: 0.8462 and 0.8806 and 0.93 and 0.8566 and 0.8291 and 0.8422 | Anisotropy [12]: 261.6 and 259.6 and 255.7 | Anisotropy data 485,520,520 [12]: 258.2 and 246.6 and 249.6 | Fb [12]: 0.8555 and 0.8547 and 0.9469 and 0.8594 and 0.823 and 0.8081 | Anisotropy [13]: 258.9 and 259.3 and 254.3 | Anisotropy data 485,520,520 [13]: 257.4 and 247.5 and 246.7 | Fb [13]: 0.8406 and 0.8336 and 0.8133 | Fb (MN551 364.432 nM; Cycle 11 (50 min); column head blank in this cycle): 0.8416 and 0.8648 and 0.908 | Anisotropy [14]: 255.9 and 243.7 and 246.3 | Anisotropy based on Raw Data (485) [14]: 259.7 and 256.8 | Anisotropy [15]: 253.9 and 241.9 and 243.7 | Anisotropy based on Raw Data (485) [15]: 259 and 253.7 and 255.5 | Anisotropy [16]: 256.9 and 241.2 and 244 | Anisotropy based on Raw Data (485) [16]: 254.6 and 255 and 254.2 | Anisotropy [17]: 254 and 241.3 and 242.7 | Anisotropy based on Raw Data (485) [17]: 256 and 253.4 and 256.6 | Anisotropy [18]: 252.5 and 240.2 and 242 | Anisotropy based on Raw Data (485) [18]: 255.9 and 251.1 and 251.4 | Anisotropy data 485,520,520 (MN551 364.432 nM; Cycle 20 (95 min); n=1): 247.9 and 247 and 245.6 | Fb (MN551 390.625 nM, Cycle 7 (30 min)): 0.781 and 0.8732 and 0.8527 | Anisotropy based on Raw Data (485) [19]: 271.5 and 272 and 265.7 | Fb [19]: 0.7988 and 0.8933 and 0.8448 | Anisotropy based on Raw Data (485) [20]: 266.2 and 269.5 and 265.7 | Fb [20]: 0.7492 and 0.887 and 0.8552 | Anisotropy based on Raw Data (485) [21]: 264.9 and 267.4 and 264.5 | Fb [21]: 0.7389 and 0.8588 and 0.8631 | Anisotropy (MN551 390.625 nM, Cycle 13 (60 min), n=1): 266.6 and 265.1 and 265.6 | Anisotropy (MN551 390.625 nM, Cycle 14 (65 min), n=1): 267.7 and 262.3 and 262.8 | Anisotropy (MN551 390.625 nM, Cycle 15 (70 min), n=1): 266.7 and 262 and 260.6 | Anisotropy (MN551 390.625 nM, Cycle 16 (75 min), n=1): 263.9 and 260.3 and 259.4 | Anisotropy (MN551 390.625 nM, Cycle 17 (80 min), n=1): 264.7 and 260.5 and 260.6 | Anisotropy (MN551 390.625 nM, Cycle 18 (85 min), n=1): 261.3 and 257.1 and 256.1 | Fb, fraction bound (MN551 390.625 nM; Cycle 4 (15 min)): 0.9724 and 0.9343 and 0.9269 | Fb, fraction bound (MN551 390.625 nM; Cycle 5 (20 min)): 0.9453 and 0.958 and 0.944 | Anisotropy data 485,520,520 [22]: 270.2 and 269.8 and 273.3 | Fb [22]: 0.9071 and 0.8852 and 0.9154 | Fb, fraction bound [22]: 0.9555 and 0.9553 and 0.9105 | Anisotropy data 485,520,520 [23]: 268.8 and 270.1 and 270.7 | Fb [23]: 0.9366 (2×) and 0.91 | Fb, fraction bound [23]: 0.9485 and 0.9289 and 0.9249 | Anisotropy [24]: 275.3 and 272.2 and 270.7 | Anisotropy data 485,520,520 [24]: 268.6 and 269.4 and 269.6 | Fb [24]: 0.9174 and 0.8949 and 0.9198 and 0.9596 and 0.9219 and 0.9164 | Anisotropy [25]: 270.8 and 271.6 and 268.5 | Anisotropy data 485,520,520 [25]: 265.9 and 265.5 and 267.9 | Fb [25]: 0.9133 and 0.8723 and 0.9099 and 0.9047 and 0.931 and 0.907 | Anisotropy (MN551 390.625 nM; Cycle 10 (45 min)): 272.7 and 270.9 and 268.2

Source: paper PMC10564737, “Structure-based design of a phosphotyrosine-masked covalent ligand targeting the E3 ligase SOCS2” (Nature Communications, 2023)
